Assay results from the supplement of paper PMC12823440, “Inhibitors supercharge kinase turnover through native proteolytic circuits” (Nature, 2025).
Where a name gives a salt, the structure may show the parent alone. The list shows a part of the results. The calls rarely recur for the same compound in another form.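 In K562 cells expressing nanoluciferase-fused kinases, luminescence was recorded at 4 h intervals between 2 and 18 h, normalized as percent of control with DMSO at 100% and a positive control at 0%. A significant (2 sigma) signal drop marks a time point as decreased. The authors' rule for a hit is not shown and takes in more than the number of time points.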

Chains of the proteins cited; added tags and fusions are not shown. Lines headed by an entry give the natural chain unless they say otherwise; changes in a name come on top.
UniProt P07947, whole entry, looked up: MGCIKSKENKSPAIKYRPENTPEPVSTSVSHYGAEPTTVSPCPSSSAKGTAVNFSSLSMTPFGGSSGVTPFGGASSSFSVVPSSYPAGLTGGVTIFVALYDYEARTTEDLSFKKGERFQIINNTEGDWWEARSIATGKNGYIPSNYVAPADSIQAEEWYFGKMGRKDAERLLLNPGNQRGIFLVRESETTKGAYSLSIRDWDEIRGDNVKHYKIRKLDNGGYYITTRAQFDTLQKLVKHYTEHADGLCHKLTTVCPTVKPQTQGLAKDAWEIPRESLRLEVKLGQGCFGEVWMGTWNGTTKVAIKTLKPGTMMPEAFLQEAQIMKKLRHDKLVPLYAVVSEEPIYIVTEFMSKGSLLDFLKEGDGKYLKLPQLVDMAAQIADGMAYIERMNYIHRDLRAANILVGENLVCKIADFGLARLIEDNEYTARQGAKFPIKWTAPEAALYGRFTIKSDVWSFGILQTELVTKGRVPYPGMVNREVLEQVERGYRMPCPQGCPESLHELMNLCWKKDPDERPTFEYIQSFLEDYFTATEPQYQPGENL
UniProt P43403: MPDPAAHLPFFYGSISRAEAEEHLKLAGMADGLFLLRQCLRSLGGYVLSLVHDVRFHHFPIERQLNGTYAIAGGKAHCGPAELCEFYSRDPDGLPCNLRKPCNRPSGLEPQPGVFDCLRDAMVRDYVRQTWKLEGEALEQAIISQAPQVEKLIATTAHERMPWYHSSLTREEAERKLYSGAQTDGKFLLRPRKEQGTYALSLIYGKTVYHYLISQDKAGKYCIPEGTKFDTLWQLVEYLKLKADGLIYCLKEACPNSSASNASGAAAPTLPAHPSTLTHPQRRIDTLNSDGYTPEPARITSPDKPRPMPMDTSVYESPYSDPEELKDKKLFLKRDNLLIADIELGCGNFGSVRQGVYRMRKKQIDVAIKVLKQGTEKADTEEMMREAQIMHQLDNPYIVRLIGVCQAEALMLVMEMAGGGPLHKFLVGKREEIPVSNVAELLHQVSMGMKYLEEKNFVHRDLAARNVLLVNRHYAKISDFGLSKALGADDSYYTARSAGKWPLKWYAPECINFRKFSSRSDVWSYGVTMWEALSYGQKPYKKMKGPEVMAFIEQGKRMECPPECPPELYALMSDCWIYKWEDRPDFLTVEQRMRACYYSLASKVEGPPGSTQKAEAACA
UniProt P11802: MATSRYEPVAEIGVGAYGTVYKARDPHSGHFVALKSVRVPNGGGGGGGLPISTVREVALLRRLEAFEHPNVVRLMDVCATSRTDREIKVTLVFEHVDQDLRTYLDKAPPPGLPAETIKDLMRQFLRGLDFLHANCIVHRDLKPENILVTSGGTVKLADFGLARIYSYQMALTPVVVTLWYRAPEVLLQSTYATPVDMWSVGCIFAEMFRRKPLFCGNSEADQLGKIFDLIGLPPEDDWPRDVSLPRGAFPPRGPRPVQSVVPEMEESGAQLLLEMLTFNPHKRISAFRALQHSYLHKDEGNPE
UniProt P50613: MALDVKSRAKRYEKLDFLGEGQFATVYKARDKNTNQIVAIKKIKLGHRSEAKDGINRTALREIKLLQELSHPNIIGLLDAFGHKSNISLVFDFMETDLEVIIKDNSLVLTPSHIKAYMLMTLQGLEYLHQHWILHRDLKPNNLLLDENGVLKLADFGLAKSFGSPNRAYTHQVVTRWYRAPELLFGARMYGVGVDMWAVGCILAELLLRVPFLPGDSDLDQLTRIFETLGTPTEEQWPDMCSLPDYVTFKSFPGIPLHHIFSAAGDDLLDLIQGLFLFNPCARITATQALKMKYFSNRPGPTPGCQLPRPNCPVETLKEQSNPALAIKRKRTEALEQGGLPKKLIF
UniProt P50750, whole entry: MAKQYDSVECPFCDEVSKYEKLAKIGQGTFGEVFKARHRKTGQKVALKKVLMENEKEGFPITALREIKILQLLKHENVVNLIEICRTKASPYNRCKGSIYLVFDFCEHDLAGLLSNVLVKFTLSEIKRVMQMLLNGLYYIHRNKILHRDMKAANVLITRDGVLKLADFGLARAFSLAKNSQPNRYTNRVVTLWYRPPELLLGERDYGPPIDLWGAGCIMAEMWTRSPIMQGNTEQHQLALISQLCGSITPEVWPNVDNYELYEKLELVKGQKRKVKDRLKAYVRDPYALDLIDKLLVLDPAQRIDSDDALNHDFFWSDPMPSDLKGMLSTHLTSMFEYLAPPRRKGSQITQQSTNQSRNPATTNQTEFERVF

Legend:
Details in all cases: K562; 2-18 h
YES1 = YES1 (UniProt P07947); assay: number of time points (of 5) at which kinase-Nluc abundance scored as decreased, DMSO-normalised (count); higher = more persistent destabilization
ZAK = ZAK (UniProt Q9NYL2); assay: as above
ZAP70 = ZAP70 (UniProt P43403); assay: as above
CDK4 = CDK4 (UniProt P11802); assay: number of time points (of 4; 2 h point missing) at which kinase-Nluc abundance scored as decreased, DMSO-normalised (count); higher = more persistent destabilization
CDK7 = CDK7 (UniProt P50613); assay: as above
CDK9 = CDK9 (UniProt P50750); assay: as above

Measured: number of time points

Cc1cc(Nc2ncnc3ccc(-c4ccc(CNCCS(C)(=O)=O)o4)cc23)ccc1Oc1ccn2ncnc2c1 [ARRY-380 (analog )] (2.5 µM)
0: all assays above

COc1ccc2cc(-c3nc(-c4ccc([S+](C)[O-])cc4)[nH]c3-c3ccncc3)ccc2c1 (stereo unspecified) [Tie2 kinase inhibitor 1] (2.5 µM)
0: all assays above

O=C(NCc1cccc(O)c1)Nc1nc(-c2ccncc2)cs1 (10 µM)
0: all assays above

O=C(Nc1cccc(Nc2ncc(Br)c(NCCc3cnc[nH]3)n2)c1)N1CCCC1 (10 µM)
0: all assays above

O=C1NC(=O)C(c2cnc3ccccn23)=C1c1cn2c3c(cc(F)cc13)CNCC2 [GSK-3 inhibitor 1] (2.5 µM)
0: all assays above

c1ccc(-c2nc3c(c(-n4ccc5cnccc54)n2)CCC3)nc1 (10 µM)
0: all assays above

FC(F)(F)c1ccc(/C=C/c2nc(COc3ccc(CCCCn4ccnn4)cc3)co2)cc1 [Mubritinib] (10 µM)
1: CDK7
0: all other assays above

CN1C(=O)[C@@H](NC(=O)c2n[nH]c(Cc3ccccc3)n2)COc2ccccc21 (10 µM)
0: all assays above

CCn1c(=O)c(-c2cc[nH]n2)cc2c(C)nc(N)nc21 [Voxtalisib] (10 µM)
0: all assays above

O=C(O)c1cc(=O)c2c(OCC(O)COc3cccc4oc(C(=O)O)cc(=O)c34)cccc2o1 [Cromolyn (sodium)] (10 µM)
0: all assays above

Cc1ncc(NC(=O)NC2c3ccccc3-c3ccccc32)c(-c2ccccc2)n1 (10 µM)
0: all assays above

O=C(Nc1nc2ccccc2[nH]1)c1cccc([N+](=O)[O-])c1 [IRAK-4 protein kinase inhibitor 2] (10 µM)
0: all assays above

Random excerpt: 2 compounds from above.
O=C(O)c1cc(=O)c2c(OCC(O)COc3cccc4oc(C(=O)O)cc(=O)c34)cccc2o1 [Cromolyn (sodium)] (10 µM)
0: all assays above

Cc1ncc(NC(=O)NC2c3ccccc3-c3ccccc32)c(-c2ccccc2)n1 (10 µM)
0: all assays above

Next part.

C[C@@H]1COCCN1c1nc(-c2cnc(N)cc2C(F)F)nc(N2[C@H](C)COC[C@@H]2C)n1 (2.5 µM)
3: CDK7
0: all other assays above

O=[N+]([O-])c1ccc2c(c1)S(=O)(=O)C=C2 [Stattic] (2.5 µM)
1: CDK7
0: all other assays above

CC[C@@](C)(Nc1ccnc(-c2c[nH]c3ncccc23)n1)C(=O)NCC(F)(F)F [Decernotinib] (10 µM)
0: all assays above

Cc1cccc2c3c(ccc12)C(=O)C1=C(OCC1C)C3=O (stereo unspecified) [Dihydroisotanshinone I] (2.5 µM)
0: all assays above

N#CC(c1ccnc(OCc2ccc(CN3CCOCC3)cc2)n1)c1nc2ccccc2s1 (stereo unspecified) [Bentamapimod] (2.5 µM)
0: all assays above

Oc1ccc(/C=C/c2cc(O)cc(O)c2)cc1 [Resveratrol] (10 µM)
0: all assays above

C[C@@H]1O[C@@H](O[C@@H]2[C@@H](O)[C@H](OCCc3ccc(O)c(O)c3)O[C@H](CO)[C@H]2OC(=O)/C=C/c2ccc(O)c(O)c2)[C@H](O)[C@H](O)[C@H]1O [Verbascoside] (10 µM)
0: all assays above

COc1ncccc1-c1cnn2ccc(N3CCN(C(=O)OC(C)C)CC3)nc12 (10 µM)
0: all assays above

COc1ccc(N=Nc2c(N)n[nH]c2N)cc1 (10 µM)
0: all assays above

O=C1NC(=Nc2c(Cl)cccc2Cl)S/C1=C\c1ccc2nccnc2c1 (2.5 µM)
1: CDK9
0: all other assays above

O=c1cc(N2CCOCC2)nc2c3ccccc3ccn12 [Compound 401] (10 µM)
0: all assays above

Cc1ccc(-c2csc3ncnc(SCCC(=O)O)c23)cc1 (10 µM)
0: all assays above

Cc1nn(C)c2c1C(c1ccc(C(F)(F)F)cc1)C(C#N)=C(N)O2 (stereo unspecified) (10 µM)
0: all assays above

CN1CCC(c2ccccc2CC(C)(C)Nc2nc(N3CCOCC3)nc(-n3c(C(F)F)nc4ccccc43)n2)CC1 [Zandelisib] (10 µM)
0: all assays above

CNC(=O)c1ccccc1Nc1nc(Nc2ccc3c(c2OC)CCC[C@H](N2CCN(CCO)CC2)C3)ncc1Cl (10 µM)
1: YES1 | CDK7
0: all other assays above

CN(C)CCC=C1c2ccccc2CCc2ccccc21 [Amitriptyline (hydrochloride)] (2.5 µM)
0: all assays above

Cn1cc(C2=C(c3cn(CCCSC(=N)N)c4ccccc34)C(=O)NC2=O)c2ccccc21 [Ro 31-8220 (mesylate)] (2.5 µM)
1: CDK7
4: CDK9
0: all other assays above

N#Cc1ccnc(Nc2cc(C3CCN(C4COC4)CC3)cc(N3CCC(F)(F)C3)n2)c1 (2.5 µM)
0: all assays above

C[C@@H]1CC(=O)c2c(ccc3c2C(=O)c2cccc(O)c2C3=O)C1 [Ochromycinone] (10 µM)
0: all assays above

Cc1ccc(NC(=O)c2ccc(CN(CCN(C)C)C(=O)c3cccnc3)cc2)cc1Nc1nccc(-c2cccnc2)n1 [PDGFRα kinase inhibitor 1] (10 µM)
0: all assays above

Nc1n[nH]c2nc(-c3ccc(NS(=O)(=O)c4cc(Cl)ccc4F)cc3)cnc12 (10 µM)
0: all assays above

COc1cc2ncnc(Nc3ccc(F)c(Cl)c3)c2cc1NC(=O)/C=C/CN1CCCCC1 [Dacomitinib] (10 µM)
1: CDK7
0: all other assays above

C=CC(=O)N1C[C@H](COc2nc(Nc3cnn(C)c3)nc3[nH]cc(Cl)c23)[C@@H](OC)C1 (2.5 µM)
0: all assays above

CNc1nc(Nc2ccc(C(=O)N3CCOCC3)cc2OC)ncc1Cl (2.5 µM)
0: all assays above
